# Test results reported in patent US8758781B2, “Tissue scaffolds derived from forestomach extracellular matrix” (Mesynthes Ltd., priority 2008, dated 2014).
# Assay: Total GAGs, Blyscan dye-binding assay (with or without heparan lyase digestion)
substance,measurement,setting,value
Heparan sulfate,Total GAGs by Blyscan assay,lyase treatment: 24 hours,15 µg/mL
same,Total GAGs by Blyscan assay,lyase treatment: 48 hours,13 µg/mL
same,Total GAGs by Blyscan assay,lyase treatment: Untreated,52 µg/mL
